Experimental data taken from PubChem BioAssay AID1656 (Sanford-Burnham Center for Chemical Genomics, 2009).
This is one part of the list.

experiment: oleate-induced lipid droplet accumulation in AML12 cells – imaging, high-throughput imaging, BODIPY stain, primary screen (AID 1656); settings: AML12 mouse hepatocytes, oleate lipid droplets, measured here: cell count, cytotoxicity flag, at 6.5 µM;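 note: cells counted across two imaged fields per well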
Method in brief: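 Test system: AML12 hepatocytes (mouse); reagent: oleate loading, 100 µM; dosing: one dose, 6.5 µM compound; incubation: overnight exposure; signal: fluorescence imaging, 20x objective, two fields per well; read-out basis: % inhibition of corrected integrated BODIPY droplet signal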

Structure (SMILES) | cell count [cells]
CCCOc1ccc(C)cc1CN(CCCl)CCCl | 726
CN1CCC(Nc2ccc(Cl)cc2)CC1 | 805
COc1cc(OC)cc(C(=O)NCC2(N3CCOCC3)CCCCC2)c1 | 694
COc1cccc(C(=O)N(c2cc(C)cc(C)c2)C2CCN(C(=O)OC(C)(C)C)CC2)c1 | 833
CCCOc1ccc(C(=O)NCC2(N(C)C)CCCCC2)cc1 | 826
CC(C)(C)OC(=O)N1CCC(Nc2ccccc2)CC1 | 702
CN1CCC(Nc2ccc(F)c(Cl)c2)CC1 | 741
CCOc1ncccc1C(=O)NCC1(N2CCOCC2)CCCCC1 | 782
CN(C)c1ccc(C(=O)NCC2(N3CCCCC3)CCCCC2)cc1 | 734
CCN1CCC(Nc2cccc(F)c2)CC1 | 762
COc1cc(OC)cc(C(=O)NCC2(N3CCCCC3)CCCCC2)c1 | 853
CCCN1CCC(Nc2cc(OC)cc(OC)c2)CC1 | 790
c1ccc(CN2CCC(Nc3ccccc3)CC2)cc1 | 763
CC(C)(C)OC(=O)N1CCC(N(C(=O)c2ccccc2)c2ccc(Cl)cc2)CC1 | 705
N#Cc1ccc(C(=O)NCC2(N3CCCCC3)CCCCC2)cc1 | 676
O=C(OC1CN2CCC1CC2)C1c2ccccc2C=Cc2ccccc21 (stereo not drawn) | 754
CCOC(=O)N1CCC(Nc2ccc(C)cc2)CC1 | 808
COc1ccc(C(=O)NCC2(N3CCOCC3)CCCCC2)cc1OC | 720
COc1cc(OC)c(C(=O)NCC2(N(C)C)CCCCC2)cc1OC | 821
CN(C)c1cccc(C(=O)NCC2(N3CCCCC3)CCCCC2)c1 | 728
COc1ccc(CN(CCCl)CCCl)cc1Cl | 670
CC(C)c1ccc(NC2CCN(C(=O)OC(C)(C)C)CC2)cc1 | 676

Structure (SMILES) | cell count [cells]
CN1CCN(CCOC(=O)C(O)(c2ccccc2)c2ccccc2)CC1 | 680
COc1ccc(NC2CCN(C(=O)OC(C)(C)C)CC2)cc1 | 722
COc1cc(C(=O)NCC2(N3CCCCC3)CCCCC2)ccc1OC(F)F | 743
O=C(NCC1(N2CCOCC2)CCCCC1)c1cc(=O)[nH]c2ccccc12 | 791
O=C(NCC1(N2CCCCC2)CCCCC1)c1cccc(C(F)(F)F)c1 | 810
O=C(NCC1(N2CCCCC2)CCCCC1)c1cccc([N+](=O)[O-])c1 | 672
CCN1CCC(Nc2ccc(Cl)cc2)CC1 | 781
O=C(NCC1(N2CCCCC2)CCCCC1)c1ccc(OC(F)F)cc1 | 778
Cc1ccc(OCC(C)C)c(CN(CCCl)CCCl)c1 | 738
CCOC(=O)N1CCC(Nc2cccc(C)c2)CC1 | 827
CCOC(=O)N1CCC(Nc2ccc(F)cc2)CC1 | 744
O=C(NCC1(N2CCCCC2)CCCCC1)c1ccc(F)cc1 | 622
CCOc1ccc(C)cc1CN(CCCl)CCCl | 639
CCOC(=O)N1CCC(Nc2ccc(OC)cc2)CC1 | 704
N#CC1(Nc2ccccc2)CCN(Cc2ccccc2)CC1 | 684
O=C(NCC1(N2CCOCC2)CCCCC1)c1cc2ccccc2o1 | 705
CSc1ccccc1C(=O)NCC1(N2CCCCC2)CCCCC1 | 737
O=C(NCC1(N2CCCCC2)CCCCC1)c1ccc(=O)[nH]c1 | 839
CC(C)(C)OC(=O)N1CCC(N(C(=O)c2ccccc2)c2ccc(F)cc2)CC1 | 843
COc1ccc(C(=O)NCC2(N3CCCCC3)CCCCC2)c(OC)c1OC | 740
COc1ccc(C(=O)NCC2(N3CCCCC3)CCCCC2)cc1 | 821
